PubChem BioAssay AID720505, Drosophila RNAi Screening Center, 2013
In all, the deposit lists about 20,000 reagents; shown is an unselected part of those with a known target gene and a result. In the full data, about 2,100 (10%) are marked active. 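Raw plate signals without normalisation; calls rest on control-based scores that were not deposited; replicate 2 separates called from uncalled poorly.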 Reagents against one gene are numbered here. Names joined by + are all predicted targets of the reagent. Not given: the amount of reagent, the time to read-out.

- Aim: 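Fly regulators or components of the CRAC channel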 (primary screen)
- System: Drosophila S2R+ cells
- Knock-down reagent: long dsRNA against Drosophila genes
- Challenge: thapsigargin (2 µM) in calcium-free buffer to empty internal stores, then 2 mM calcium added back
- Measurement: 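Stores emptied by 2 µM thapsigargin without calcium, then 2 mM calcium re-added; fluo-4 fluorescence followed by FLIPR in 384-well plates, per-well averaged endpoint, raw; two screen passes, some wells retested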
- Direction: calcium signal and retest calcium signal: higher = more calcium entry after store depletion
- Rule for the call: 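About 1500 genes called as lowering calcium entry, by varying amounts, judged against per-plate control wells with STIM1 as positive and Rho1 as negative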
- Meaning of the calls: active = called as lowering calcium entry; inactive = not called

gene	dsRNA no.	calcium signal, replicate 1	calcium signal, replicate 2	retest calcium signal, replicate 1	retest calcium signal, replicate 2	Call
Mul1	1	87	133			inactive
CG12699	1	102	101			inactive
if	1	79.4	131			inactive
CG17712	1	97.9	295			inactive
mRpS18A	1	149	115			inactive
CG42819	1	197	204			inactive
CG2126	1	162	146			inactive
Rev1	1	62.3	108			active
CG18180	1	132	89.2			inactive
CG17717	1	165	127			inactive
CG8112	1	136	195			inactive
CG14411	1	91.7	96.2			inactive
ND-15	1	74.8	119			inactive
Son	1	140	152			inactive
CG13227	1	74.7	103	75.3	73.6	inactive
aos	1	93.1	178			inactive
CG12868	1	139	131			inactive
Yp1	1	64.7	80.2			active
Manf	1	113	214			inactive
CG13284	1	93.9	126			inactive
CG2256	1	237	133			inactive
Nse1	1	85	117			inactive
Gld	1	115	123			inactive
Wdr62	1	87.5	192			inactive
Wdr62	2	91.2	135			inactive
Wdr62	3	141	289			inactive
Wdr62	4	81.6	175			inactive
Hayan	1	195	94.2	64.6	89.9	inactive
Hayan	2	74.2	182			inactive
CG4101	1	80	154			inactive
dom	1	73.3	146			active
dom	2	160	101			inactive
CG34266	1	91.7	77.3			inactive
Ugt50B3	1	72.9	91.7			active
Ugt50B3	2	64.7	110			inactive
Ugt50B3	3	160	85.2			inactive
Cpr64Ab	1	106	94.3			inactive
CG11106	1	108	100			inactive
htt	1	144	179			inactive

Records above with an active call (4):
gene	dsRNA no.	calcium signal, replicate 1	calcium signal, replicate 2	retest calcium signal, replicate 1	retest calcium signal, replicate 2	Call
Rev1	1	62.3	108			active
Yp1	1	64.7	80.2			active
dom	1	73.3	146			active
Ugt50B3	1	72.9	91.7			active

The listing continues.
gene	dsRNA no.	calcium signal, replicate 1	calcium signal, replicate 2	retest calcium signal, replicate 1	retest calcium signal, replicate 2	Call
gammaTub37C	1	115	159			inactive
armi	1	123	104			inactive
CG31861	1	181	129			inactive
Obp57e	1	51	119			active
CG1494	1	204	99.4			inactive
CG7910	1	110	190			inactive
CG13627	1	244	166			inactive
Ubx	1	134	89.7	9314	166	inactive
AANATL2	1	192	87.5			inactive
CG5916	1	102	292			inactive
CG12516	1	153	142			inactive
Acsx4	1	168	159			inactive
l(2)05714	1	77.1	136			inactive
5PtaseI	1	186	325			inactive
5PtaseI	2	82	254			inactive
RFeSP	1	176	149			inactive
CG7509	1	69.6	119			active
S6KL	1	148	134	123	96.8	inactive
S6KL	2	196	120			inactive
S6KL	3	117	141			inactive
Dif	1	102	142			inactive
mEFTu2	1	216	86.1			inactive
RabX2	1	65.6	89.1	5636	129	inactive
Xpc	1	114	112			inactive
CG17726	1	86.6	132			inactive
alpha-Man-Ic	1	154	90.8			inactive
idc	1	183	309			inactive
CG11248	1	109	101			inactive
lncRNA:CR42862 + CG33229	1	156	111			inactive
opm	1	153	84.3			inactive
opm	2	91.4	139			inactive
CG9040	1	89.9	121			inactive
Phk-3	1	66.8	132			inactive
CG4907	1	192	126			inactive
CG18539	1	231	194			inactive
CG33155 + mRpL53	1	86.4	154			inactive
Nct	1	143	325			inactive
LTV1	1	139	111			inactive
Best4	1	82.1	130			inactive
CG31639	1	104	148			inactive
Tmtc2	1	149	233			inactive
Pop1	1	109	93.6			inactive
Rpn6	1	77.8	103			active
Skp2 + CG1103	1	99.2	87.9			inactive
Skp2 + CG1103	2	108	251			inactive
